Source: ChEMBL document CHEMBL1629460, “Image-based high-throughput drug screening targeting the intracellular stage of Trypanosoma cruzi, the agent of Chagas' disease” (Antimicrob Agents Chemother, 2010)

Assays:
[1] = Cytotoxicity against BESM cells after 88 hrs by HTS assay; type: ADME, cell-based; details: Bos taurus
[2] = system: Trypanosoma cruzi; assay: Antitrypanosomal activity against Trypanosoma cruzi amastigotes infected in BESM cells measured after 88 hrs postinfection by HTS assay; type: functional, organism-based
[3] = Selectivity window, ratio of EC50 for BESM cells to EC50 for Trypanosoma cruzi amastigotes infected in BESM cells; set-up: reference not given here

EC50 [2]: 0.8 µM
SMILES: CCCCc1oc2ccccc2c1C(=O)c1cc(I)c(OCCN(CC)CC)c(I)c1 [AMIODARONE]
EC50 [1]: 36 µM
Ratio EC50 [3]: 45
